Laboratory results reported in paper PMC12548414.
The whole screen tested about 1,600 compounds, of which about 20 (1%) showed an effect of 50% or more. The list shows a part of the results.

System: T1, E. coli pLC1021 (luc-trpAt trans-translation reporter)
T1 construct: pLC1021 luc-trpAt reporter strain
Parameters: species or system Escherichia coli pLC1021; luc-trpAt non-stop luciferase reporter; luminescence rises when trans-translation is inhibited; normalized to KKL-35 and DMSO
Conditions: reporter signal, KKL-35 = 100%; rise means trans-translation inhibition; 2 h, 20 µM
Method in brief: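 Luminescence (560 nm, 10 min after Bright-Glo) reports luciferase that escapes trans-translation tagging, measured after 2 h room-temperature treatment with 20 µM compound. Each plate was scaled between DMSO (negative) and 20 µM KKL-35 (positive) controls. Compounds scoring one standard deviation above the median counted as positive; at least two biological repeats.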

SMILES	% activation [%]
CSc1nsc(SCC(=O)N2CCN(c3ccccc3)CC2)n1 [KKL-0572]	0
Cc1nn(-c2ccccc2)c(C)c1N1C(=O)c2cccc3cc([N+](=O)[O-])cc(c23)C1=O [KKL-1394]	1
COc1ccccc1-c1c(C)oc2cc(OCC(=O)OCc3ccccc3)ccc2c1=O [KKL-0426]	0
CCN(Cc1ccc2c(c1)OCO2)C(=O)CSc1nc(NC)c2ccccc2n1 [KKL-1804]	1
Oc1ccccc1N=Cc1ccc[nH]1 [KKL-0874]	4
O=C(c1ccc(Cl)cc1)c1ccc(OCC(O)CN2CCN(Cc3ccccc3)CC2)cc1 (stereo not shown) [KKL-1453]	0
c1ccc(SCc2nn3c(-c4ccccc4)nnc3s2)cc1 [KKL-1669]	2
O=C(Nc1ccc(Cl)cc1)Nc1ccc(F)c(F)c1 [KKL-1350]	0
C=CCSc1nnc(-c2ccc([N+](=O)[O-])cc2)o1 [KKL-1062]	0
CSc1ncc(C(=O)Nc2cccc(C(F)(F)F)c2)cn1 [KKL-0605]	3
CCOC(=O)COc1ccc2c3c(c(=O)oc2c1)CCCCC3 [KKL-1496]	0
O=S1(=O)CC(O)C(N2CCN(c3ccccc3Cl)CC2)C1 (stereo not shown) [KKL-1794]	6
Cc1ccc(-c2csc(-c3ccc(O)cc3)n2)cc1 [KKL-0782]	14
CCCCCCn1c(=O)c(C(=O)Nc2nc(CC(=O)OCC)cs2)c(O)c2ccccc21 [KKL-0986]	0
O=C(NC(=S)N1CCCC1)c1ccc(-c2ccccc2)cc1 [KKL-1220]	9
Cc1ccc(-c2nnc3sc(Cc4ccccc4)nn23)cc1 [KKL-0615]	0
CCOC(=O)Cn1nnc(-c2ccc(OCc3ccccc3C)cc2)n1 [KKL-1542]	0
FC(F)(F)c1cc(SCc2ccccc2)nc(-c2ccccn2)n1 [KKL-1823]	6
COc1ccccc1/C=C/C(=O)Oc1cccc2cccnc12 [KKL-0360]	0
N=C(N)c1ccc(CCN2CCC(c3nc(COCC(F)(F)F)c(-c4ccc(F)cc4)o3)CC2)cc1 [KKL-1848]	28
O=C(CCCn1ccnc1)Nc1ncc(Cc2cccc(Cl)c2Cl)s1 [KKL-0941]	0
Cc1nc(SCc2csc(C)n2)c2c3c(sc2n1)CCCC3 [KKL-0287]	0

SMILES	% activation [%]
Cc1ccc(Nc2nc(NCc3ccco3)c3ccccc3n2)cc1 [KKL-0364]	19
O=C(c1ccc(Cl)cc1)C1CCCN(Cc2ccc3nonc3c2)C1 (stereo not shown) [KKL-0479]	0
COc1ccc2nc(C)cc(OCC(=O)NCc3ccccc3)c2c1 [KKL-1765]	39
O=C1C(NS(=O)(=O)c2cccs2)=C(N2CCN(c3cccc(C(F)(F)F)c3)CC2)C(=O)c2ccccc21 [KKL-0989]	2
Cc1n[nH]c(C)c1S(=O)(=O)NCc1nc(NCCCc2ccccc2)c2ccccc2n1 [KKL-1839]	1
CCN(CC)c1cccc(Oc2nc([N+](=O)[O-])nn2C)c1 [KKL-0601]	0
COc1cccc(-c2cc(CC3(O)CCN(Cc4[nH]c5ccc(C)cc5c4C)CC3)on2)c1 [KKL-0315]	0
CCc1nnc(NC(=O)c2cccc(C(=O)Nc3nnc(CC)s3)n2)s1 [KKL-1023]	6
CCC(CO)N1C(C)=CC(=Cc2sc3ccccc3[n+]2Cc2ccccc2)C=C1C (stereo not shown) [KKL-0847]	0
Cc1ccc(-c2[nH]ncc2CNCc2ccc(OC(F)(F)F)cc2)cc1C [KKL-0661]	9
CSc1ncc(CN2CCC(O)(c3ccc(C(F)(F)F)cc3)CC2)cn1 [KKL-0927]	0
Cc1cccc(N2CCN(C3=NC(=O)C(=C4CCCCC4)S3)CC2)c1 [KKL-0914]	0
Cn1c2c(c(=O)n(C)c1=O)C(C(F)(F)F)(C(F)(F)F)NC(c1ccc(Cl)cc1)=N2 [KKL-0608]	10
NC1CCc2nc(-c3cccnc3)nc(Nc3cccc(C(F)(F)F)c3)c2C1 (stereo not shown) [KKL-0530]	124
Cc1nnc(NCc2cccc(Cl)c2)c2ccccc12 [KKL-1684]	0
Oc1nc(-c2ccccn2)nc2ccccc12 [KKL-0878]	0
CCCCOc1ccc(S(=O)(=O)Nc2ccc(I)cc2)cc1 [KKL-0910]	10
OC(CNCc1ccco1)Cn1c2ccc(Br)cc2c2cc(Br)ccc21 (stereo not shown) [KKL-1106]	0
COc1ccc(C=c2sc(=CC(=O)C(C)(C)C)[nH]c2=O)cc1O [KKL-0950]	0
Cc1cc(OCCCCCn2ccnc2)cc(C)c1Cl [KKL-1249]	21
CCC(CC)c1nnc(NC(=O)c2ccc3ccccc3n2)s1 [KKL-0811]	0
CCOC(=O)c1ccc(NC(S)=Nc2ccc(Oc3ccccc3)cc2)cc1 [KKL-1317]	0

SMILES	% activation [%]
O=C(NCc1cc(Cl)cc(Cl)c1)c1c(C(F)(F)F)nc2ccccn12 [KKL-1807]	0
C[n+]1c2n(c3ccccc31)N=C(c1cc(C(C)(C)C)c(O)c(C(C)(C)C)c1)CS2 [KKL-1636]	0
O=S(=O)(NCc1ccccc1)c1ccc(-c2c(OC3CCNCC3)ccc3cnccc23)s1 [KKL-1866]	33
COc1ccc(NCc2cc3c(C)nn(-c4ccccc4)c3nc2O)c(OC)c1 [KKL-1213]	0
NC1CCc2nc(-c3ccncc3)nc(Nc3ccc(Cl)cc3)c2C1 (stereo not shown) [KKL-0326]	797
CC1CCCc2sc(NC(=S)NC(=O)c3ccccc3)c(C#N)c21 (stereo not shown) [KKL-0857]	0
N#Cc1nc(-c2cccs2)oc1NCCc1ccccc1 [KKL-1016]	3
OC(CN1CCN(c2ccccn2)CC1)Cn1c2ccc(Cl)cc2c2cc(Cl)ccc21 (stereo not shown) [KKL-1649]	0
O=C(NCCO)c1c(O)c2ncc(Cc3ccc(F)cc3C(F)(F)F)cc2[nH]c1=O [KKL-1865]	4
Cc1ccc(Cl)cc1N1CCN(CC(O)COc2ccc(C(=O)c3ccccc3)cc2)CC1 (stereo not shown) [KKL-0406]	0
Cc1ccc2nc(C(F)(F)F)c(C(=O)NCc3ccc4c(c3)OCO4)n2c1 [KKL-1771]	2
Cc1cc(NS(=O)(=O)c2ccc(NC(=O)c3ccc(C(C)(C)C)cc3)cc2)no1 [KKL-1380]	0
O=C(Nc1ccc(C(F)(F)F)cc1)Nc1cccc(Cl)c1 [KKL-1575]	2
CCC(C)c1ccc(OCC(=O)Nc2ccc(OC)c([N+](=O)[O-])c2)cc1 (stereo not shown) [KKL-1538]	4
COc1cccc(-c2ccccc2NC(=O)C2CCN(Cc3cc(C)ccc3C)CC2)c1 [KKL-1138]	0
CSCCC(=O)N1CCCC(C(=O)Nc2cccc(-c3cccc(C)c3)c2)C1 (stereo not shown) [KKL-0499]	0
O=C(Nc1cccc(Cl)c1)Nc1ccccc1OC(F)(F)C(F)F [KKL-0431]	21
COC(=O)[C@@H]1Cc2c([nH]c3ccccc23)[C@H]2C[C@H](NCc3cccnc3)C[C@@H](c3ccc(F)cc3)N21 [KKL-0302]	0
CSc1nc2ccc(NC(=O)C3CC(=O)N(Cc4ccccc4)C3)cc2s1 (stereo not shown) [KKL-0922]	0
O=C(NCc1cccs1)c1cc2n(n1)C(C(F)(F)F)CC(c1ccc3c(c1)OCO3)N2 (stereo not shown) [KKL-0966]	22
CC(C)(C)NC(=O)COC(=O)c1snc(C(=O)NC2CCCCC2)c1N [KKL-1657]	1
Cc1ccc(CNC(=O)c2ccc([N+](=O)[O-])o2)cc1 [KKL-1641]	0

Quoted at random: 5 records from the list
SMILES	% activation [%]
C[n+]1c2n(c3ccccc31)N=C(c1cc(C(C)(C)C)c(O)c(C(C)(C)C)c1)CS2 [KKL-1636]	0
O=C(NC(=S)N1CCCC1)c1ccc(-c2ccccc2)cc1 [KKL-1220]	9
O=C(NCc1cc(Cl)cc(Cl)c1)c1c(C(F)(F)F)nc2ccccn12 [KKL-1807]	0
Cc1nn(-c2ccccc2)c(C)c1N1C(=O)c2cccc3cc([N+](=O)[O-])cc(c23)C1=O [KKL-1394]	1
O=C(NCCO)c1c(O)c2ncc(Cc3ccc(F)cc3C(F)(F)F)cc2[nH]c1=O [KKL-1865]	4

More compounds follow.

SMILES	% activation [%]
COC(=O)COc1ccc2cc(-c3ccc(OC)c(OC)c3)c(=O)oc2c1 [KKL-0565]	3
COc1cc(CN(CCCn2ccnc2)Cc2ccc(C)s2)cc2c1OCO2 [KKL-0341]	9
CCOC(=O)C1CCN(Cc2nc(-c3ccc(Cl)cc3)no2)CC1 [KKL-0666]	6
c1ccc(CCN2CCC3(CC2)Nc2ccccc2-n2cccc23)cc1 [KKL-1258]	0
CC(C)(C)c1cc(Cl)ccc1OCCCCn1ccnc1 [KKL-1305]	5
COC(=O)[C@@H](NC(=O)c1cc(COc2cncc(Cl)c2)on1)c1ccccc1 [KKL-0505]	12
Cc1ccc(C(=O)NCCC23CC4CC(CC(C4)C2)C3)cc1 [KKL-0858]	0
OC1(Cc2cc(-c3ccccc3)no2)CCN(Cc2ccc(OC3CCCC3)cc2)CC1 [KKL-0632]	0
COC(=O)c1ccc(CN2CCC(C(=O)Nc3cccc(-c4ccco4)c3)CC2)cc1 [KKL-1156]	0
COC(=O)c1ccc(C(=O)NC2CCCc3c2cnn3-c2cc(F)cc(F)c2)nc1 (stereo not shown) [KKL-1174]	2
CCOc1cc(/C=C2\SC(=N)N(c3nccs3)C2=O)ccc1OCCN1CCOCC1 [KKL-0454]	0
CCC(Sc1nc2ccccc2o1)C(=O)Nc1nnc(C)s1 (stereo not shown) [KKL-1356]	2
COc1ccc2cc(C(=O)C3CCCN(Cc4cnc(SC)nc4)C3)ccc2c1 (stereo not shown) [KKL-0663]	2
Cc1cccc(OCc2nnc(SCC(=O)NCCc3ccccc3)o2)c1 [KKL-0293]	0
CC(C)COC(=O)c1ccc2c(c1O)C(=O)c1ccccc1C2=O [KKL-1667]	0
Cc1cc(CN2CCC(O)(c3ccccc3)C2)ccc1N1CCCC1 (stereo not shown) [KKL-0330]	0
O=C(Nc1ccccc1)C1COc2ccccc2O1 (stereo not shown) [KKL-0471]	6
O=C(OCc1nnc(-c2ccccc2)o1)c1cc(-c2cccs2)nc2ccccc12 [KKL-1045]	9
O=C(NCC1COc2ccccc2O1)c1ccc(NC(=O)C2COc3ccccc3O2)cc1 (stereo not shown) [KKL-1431]	0
